According to patent publication US11096928B2, “Pharmaceutical composition” (WUHAN LL SCIENCE AND TECHNOLOGY DEVELOPMENT CO., LTD., priority 2016, dated 2021):
Some of these results come from one statement about several compounds together.

System: spontaneously hypertensive rats
Test: Antihypertensive efficacy test of the compound 1K in spontaneously hypertensive rats
Format: in vivo, rat
Conditions: SHR, intragastric, 1 mg/kg
Procedure: 12-week-old spontaneously hypertensive rats (hereinafter referred to as SHR, purchased from Beijing Weitong Lihua Experimental Animal Technology Co., Ltd.) were anesthetized with 2.5% sodium pentobarbital for intraperitoneal injection. After that, the blood pressure sensing catheter of hypertension implant was inserted into their abdominal aorta, while the implant was fixed to the abdominal wall, and then postoperative daily care was performed after suturing. Rats with systolic blood pressure exceeding 160 mm Hg were divided into 3 groups (control group, compound 1 group and compound 1K group), wherein each group has 8 rats. The control group was administrated 0.5% sodium carboxymethyl cellulose (hereinafter referred to as CMC-Na); the compound 1 group and the compound 1K group were respectively administered the compound 1 and the compound 1K, both of which were dissolved by 0.5% CMC-Na, by intragastric administration, at a dose of 1 mg/kg (calculated by the effective dose of valsartan) and a volume calculated by 4 mL/kg. The systolic blood pressure and heart rate of SHR were compared before and after administration (the systolic blood pressure and heart rate of SHR before administration as reference value), which were detected three times at each time point with the average value recorded.

Compound: CCOc1nc2cccc(C(=O)OC(C)OC(=O)OCc3nc(C)c(C)nc3C)c2n1Cc1ccc(-c2ccccc2-c2noc(=O)[n-]2)cc1.[K+] (stereo not shown) [Compound 1K]
- time at which the drug efficacy peaks (systolic blood pressure): 5-7 hours after administration
